Measured values reported in the supplement of paper PMC10849652.
This is one part of the list.

The chains behind the UniProt entries cited, without tags or fusion partners. Where a name states a change or a piece, a line headed by the entry shows the natural chain unless it says otherwise.
UniProt P42765: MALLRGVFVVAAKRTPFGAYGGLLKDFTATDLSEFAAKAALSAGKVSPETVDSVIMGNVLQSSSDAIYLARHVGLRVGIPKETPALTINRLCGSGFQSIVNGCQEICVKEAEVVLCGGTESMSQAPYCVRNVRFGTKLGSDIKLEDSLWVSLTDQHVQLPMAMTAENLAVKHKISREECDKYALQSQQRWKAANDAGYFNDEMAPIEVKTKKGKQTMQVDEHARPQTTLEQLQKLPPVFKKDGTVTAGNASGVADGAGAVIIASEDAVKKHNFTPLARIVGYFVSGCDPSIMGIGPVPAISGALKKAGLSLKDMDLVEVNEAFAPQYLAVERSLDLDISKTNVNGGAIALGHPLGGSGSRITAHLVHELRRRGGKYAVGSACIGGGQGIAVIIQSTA
UniProt P55265: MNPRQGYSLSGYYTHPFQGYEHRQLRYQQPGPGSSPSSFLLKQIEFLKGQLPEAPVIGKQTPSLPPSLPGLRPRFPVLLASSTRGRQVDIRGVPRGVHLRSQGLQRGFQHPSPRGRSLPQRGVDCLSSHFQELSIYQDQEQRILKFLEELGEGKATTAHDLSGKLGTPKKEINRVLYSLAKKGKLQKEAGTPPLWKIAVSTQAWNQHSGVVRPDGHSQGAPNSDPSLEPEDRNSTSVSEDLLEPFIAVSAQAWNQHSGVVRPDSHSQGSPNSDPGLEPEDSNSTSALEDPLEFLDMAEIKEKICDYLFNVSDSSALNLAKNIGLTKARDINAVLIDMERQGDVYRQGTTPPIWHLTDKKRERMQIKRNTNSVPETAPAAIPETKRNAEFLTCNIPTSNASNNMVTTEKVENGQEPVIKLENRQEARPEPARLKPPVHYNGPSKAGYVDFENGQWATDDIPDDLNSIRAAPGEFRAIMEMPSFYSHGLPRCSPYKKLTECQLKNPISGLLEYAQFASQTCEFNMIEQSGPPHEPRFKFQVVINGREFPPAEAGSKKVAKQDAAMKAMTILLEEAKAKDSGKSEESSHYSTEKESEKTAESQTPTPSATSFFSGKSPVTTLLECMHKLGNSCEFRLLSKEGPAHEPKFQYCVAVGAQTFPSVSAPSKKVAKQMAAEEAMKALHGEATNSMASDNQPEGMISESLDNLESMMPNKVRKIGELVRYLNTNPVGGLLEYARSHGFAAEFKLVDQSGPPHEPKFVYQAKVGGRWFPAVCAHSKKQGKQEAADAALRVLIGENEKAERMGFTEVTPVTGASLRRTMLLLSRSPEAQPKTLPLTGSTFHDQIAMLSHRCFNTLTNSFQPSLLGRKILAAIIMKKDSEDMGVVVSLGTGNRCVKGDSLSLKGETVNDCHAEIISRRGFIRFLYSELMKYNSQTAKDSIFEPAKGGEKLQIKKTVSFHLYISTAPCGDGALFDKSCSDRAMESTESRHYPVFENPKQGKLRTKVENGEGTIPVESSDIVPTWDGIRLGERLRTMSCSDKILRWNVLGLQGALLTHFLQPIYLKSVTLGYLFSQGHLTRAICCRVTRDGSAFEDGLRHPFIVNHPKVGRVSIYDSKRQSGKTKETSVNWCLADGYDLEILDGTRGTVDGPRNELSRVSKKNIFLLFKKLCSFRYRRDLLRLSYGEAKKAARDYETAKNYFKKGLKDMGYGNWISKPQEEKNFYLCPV
UniProt Q9ULC5: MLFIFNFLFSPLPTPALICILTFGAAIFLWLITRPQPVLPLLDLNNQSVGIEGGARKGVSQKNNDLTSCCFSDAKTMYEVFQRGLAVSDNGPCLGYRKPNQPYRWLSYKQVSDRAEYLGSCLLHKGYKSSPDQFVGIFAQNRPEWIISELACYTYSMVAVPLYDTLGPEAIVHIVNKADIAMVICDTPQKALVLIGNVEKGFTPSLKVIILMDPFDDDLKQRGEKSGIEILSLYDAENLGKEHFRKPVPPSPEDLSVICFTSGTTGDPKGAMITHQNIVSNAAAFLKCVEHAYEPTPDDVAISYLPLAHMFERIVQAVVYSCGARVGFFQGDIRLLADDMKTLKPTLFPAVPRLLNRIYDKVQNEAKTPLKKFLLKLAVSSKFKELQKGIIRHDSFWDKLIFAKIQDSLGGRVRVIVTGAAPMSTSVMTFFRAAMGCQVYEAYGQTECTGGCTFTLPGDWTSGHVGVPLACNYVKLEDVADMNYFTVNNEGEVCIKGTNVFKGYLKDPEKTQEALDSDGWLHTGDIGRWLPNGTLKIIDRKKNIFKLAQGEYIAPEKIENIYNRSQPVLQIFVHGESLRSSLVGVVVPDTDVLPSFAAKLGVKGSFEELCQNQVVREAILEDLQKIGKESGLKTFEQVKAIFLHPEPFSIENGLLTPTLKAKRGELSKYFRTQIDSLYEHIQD
UniProt Q9GZN1, whole entry, looked up: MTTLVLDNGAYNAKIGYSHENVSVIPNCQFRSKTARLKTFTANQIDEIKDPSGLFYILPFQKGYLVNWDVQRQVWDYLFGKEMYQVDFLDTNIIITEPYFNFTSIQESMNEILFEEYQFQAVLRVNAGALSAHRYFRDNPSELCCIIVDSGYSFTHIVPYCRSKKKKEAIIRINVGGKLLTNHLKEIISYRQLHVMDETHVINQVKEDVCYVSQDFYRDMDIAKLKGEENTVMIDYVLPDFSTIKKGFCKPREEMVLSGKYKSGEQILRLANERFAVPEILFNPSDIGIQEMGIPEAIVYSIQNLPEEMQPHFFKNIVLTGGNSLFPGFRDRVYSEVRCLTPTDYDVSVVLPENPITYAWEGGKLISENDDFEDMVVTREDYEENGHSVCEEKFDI
UniProt P61163, whole entry, looked up: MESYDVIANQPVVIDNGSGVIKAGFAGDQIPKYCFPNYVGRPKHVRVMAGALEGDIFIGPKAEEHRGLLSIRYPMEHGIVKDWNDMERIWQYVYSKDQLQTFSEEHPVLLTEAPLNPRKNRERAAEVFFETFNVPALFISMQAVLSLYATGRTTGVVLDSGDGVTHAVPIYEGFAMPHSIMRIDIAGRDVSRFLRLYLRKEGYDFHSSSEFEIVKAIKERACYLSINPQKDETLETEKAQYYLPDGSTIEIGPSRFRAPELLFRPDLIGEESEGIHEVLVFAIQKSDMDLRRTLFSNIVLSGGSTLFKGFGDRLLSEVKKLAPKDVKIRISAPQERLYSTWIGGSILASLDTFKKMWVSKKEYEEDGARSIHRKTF
UniProt P49588, whole entry, looked up: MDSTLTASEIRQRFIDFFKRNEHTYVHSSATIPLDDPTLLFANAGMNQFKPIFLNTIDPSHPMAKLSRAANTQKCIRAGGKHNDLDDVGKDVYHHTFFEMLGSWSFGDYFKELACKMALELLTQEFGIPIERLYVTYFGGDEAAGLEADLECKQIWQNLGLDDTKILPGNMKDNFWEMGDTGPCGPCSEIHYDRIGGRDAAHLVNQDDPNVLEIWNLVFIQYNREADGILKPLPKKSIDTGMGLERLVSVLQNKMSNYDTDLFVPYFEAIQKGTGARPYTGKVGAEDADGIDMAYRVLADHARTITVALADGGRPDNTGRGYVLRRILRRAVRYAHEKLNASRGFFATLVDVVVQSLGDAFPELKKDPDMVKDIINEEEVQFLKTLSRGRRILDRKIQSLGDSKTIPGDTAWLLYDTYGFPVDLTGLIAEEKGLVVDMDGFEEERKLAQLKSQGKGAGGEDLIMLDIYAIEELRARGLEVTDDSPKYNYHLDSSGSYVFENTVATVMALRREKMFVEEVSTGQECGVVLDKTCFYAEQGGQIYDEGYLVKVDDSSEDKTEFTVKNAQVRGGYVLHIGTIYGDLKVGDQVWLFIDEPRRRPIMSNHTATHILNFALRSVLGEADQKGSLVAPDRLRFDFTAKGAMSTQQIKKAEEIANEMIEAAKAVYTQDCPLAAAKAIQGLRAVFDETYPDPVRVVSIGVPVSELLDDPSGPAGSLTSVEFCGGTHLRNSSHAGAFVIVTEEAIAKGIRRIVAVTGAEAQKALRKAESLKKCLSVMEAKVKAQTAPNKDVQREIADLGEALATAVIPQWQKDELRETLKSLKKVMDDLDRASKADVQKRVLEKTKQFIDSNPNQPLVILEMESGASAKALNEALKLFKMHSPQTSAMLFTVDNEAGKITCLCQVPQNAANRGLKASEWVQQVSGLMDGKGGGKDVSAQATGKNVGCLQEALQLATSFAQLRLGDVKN
UniProt P14621: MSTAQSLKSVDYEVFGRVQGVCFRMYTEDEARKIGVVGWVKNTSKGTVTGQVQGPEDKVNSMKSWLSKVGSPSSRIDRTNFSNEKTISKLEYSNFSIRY
UniProt P53396: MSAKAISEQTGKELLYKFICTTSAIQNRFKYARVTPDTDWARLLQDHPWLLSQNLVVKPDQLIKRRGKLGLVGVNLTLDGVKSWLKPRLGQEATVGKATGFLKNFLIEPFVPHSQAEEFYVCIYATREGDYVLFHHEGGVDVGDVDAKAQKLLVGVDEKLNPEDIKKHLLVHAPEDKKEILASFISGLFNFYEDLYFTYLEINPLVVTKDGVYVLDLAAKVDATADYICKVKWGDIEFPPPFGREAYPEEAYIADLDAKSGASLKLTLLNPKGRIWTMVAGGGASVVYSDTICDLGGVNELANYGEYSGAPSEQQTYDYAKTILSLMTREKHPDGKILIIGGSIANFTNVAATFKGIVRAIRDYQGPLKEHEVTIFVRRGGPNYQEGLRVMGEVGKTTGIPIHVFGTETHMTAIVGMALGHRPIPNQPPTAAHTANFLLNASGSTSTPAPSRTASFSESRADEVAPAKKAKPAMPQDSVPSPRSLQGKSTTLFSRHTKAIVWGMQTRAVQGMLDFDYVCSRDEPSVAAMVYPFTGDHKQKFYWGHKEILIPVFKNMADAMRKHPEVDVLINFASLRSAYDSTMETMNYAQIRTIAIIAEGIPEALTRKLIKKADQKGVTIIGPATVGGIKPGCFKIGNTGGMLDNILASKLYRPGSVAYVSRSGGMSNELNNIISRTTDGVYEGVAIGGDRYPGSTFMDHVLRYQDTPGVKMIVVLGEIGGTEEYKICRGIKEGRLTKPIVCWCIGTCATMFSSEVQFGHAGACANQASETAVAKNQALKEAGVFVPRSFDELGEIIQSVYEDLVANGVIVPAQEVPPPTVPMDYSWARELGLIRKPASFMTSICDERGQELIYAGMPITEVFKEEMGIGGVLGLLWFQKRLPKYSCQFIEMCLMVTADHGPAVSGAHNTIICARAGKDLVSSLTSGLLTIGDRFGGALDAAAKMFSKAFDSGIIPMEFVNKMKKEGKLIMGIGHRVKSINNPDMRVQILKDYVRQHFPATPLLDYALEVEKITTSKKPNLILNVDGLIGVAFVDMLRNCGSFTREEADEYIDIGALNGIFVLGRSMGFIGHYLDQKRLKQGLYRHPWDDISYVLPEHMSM
UniProt Q9NRG9: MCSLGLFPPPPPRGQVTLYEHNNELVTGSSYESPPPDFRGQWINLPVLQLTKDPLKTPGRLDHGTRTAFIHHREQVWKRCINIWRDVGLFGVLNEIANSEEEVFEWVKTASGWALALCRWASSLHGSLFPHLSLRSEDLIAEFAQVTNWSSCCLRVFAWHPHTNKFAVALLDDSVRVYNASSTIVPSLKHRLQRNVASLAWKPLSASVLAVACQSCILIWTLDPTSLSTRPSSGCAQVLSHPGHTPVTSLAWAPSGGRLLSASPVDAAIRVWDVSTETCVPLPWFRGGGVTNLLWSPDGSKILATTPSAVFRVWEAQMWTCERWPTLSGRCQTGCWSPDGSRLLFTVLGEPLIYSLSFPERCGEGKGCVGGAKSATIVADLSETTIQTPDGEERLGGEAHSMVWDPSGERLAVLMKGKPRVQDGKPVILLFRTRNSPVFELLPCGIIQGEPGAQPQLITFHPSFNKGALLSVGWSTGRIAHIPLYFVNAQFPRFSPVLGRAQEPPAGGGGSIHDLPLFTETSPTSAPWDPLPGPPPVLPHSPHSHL
UniProt Q6UWZ7: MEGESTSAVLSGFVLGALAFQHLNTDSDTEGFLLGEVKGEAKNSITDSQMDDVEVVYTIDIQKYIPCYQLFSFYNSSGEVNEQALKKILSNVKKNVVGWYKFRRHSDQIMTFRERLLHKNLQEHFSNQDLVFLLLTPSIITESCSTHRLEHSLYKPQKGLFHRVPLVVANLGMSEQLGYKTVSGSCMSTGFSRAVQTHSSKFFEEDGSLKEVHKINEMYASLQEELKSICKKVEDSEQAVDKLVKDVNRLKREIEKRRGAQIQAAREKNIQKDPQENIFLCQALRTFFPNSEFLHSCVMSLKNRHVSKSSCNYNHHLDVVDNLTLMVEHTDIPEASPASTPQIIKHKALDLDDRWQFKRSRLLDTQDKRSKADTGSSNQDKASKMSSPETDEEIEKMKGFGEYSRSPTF
UniProt Q6PD74: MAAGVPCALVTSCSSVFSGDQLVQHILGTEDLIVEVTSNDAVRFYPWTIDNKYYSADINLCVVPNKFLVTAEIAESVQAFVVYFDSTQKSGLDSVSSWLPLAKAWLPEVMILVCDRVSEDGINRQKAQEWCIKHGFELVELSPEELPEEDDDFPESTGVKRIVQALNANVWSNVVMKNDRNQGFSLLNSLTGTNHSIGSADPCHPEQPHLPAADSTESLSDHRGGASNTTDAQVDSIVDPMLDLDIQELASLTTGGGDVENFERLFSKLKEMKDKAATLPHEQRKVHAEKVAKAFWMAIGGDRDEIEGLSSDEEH

Tests used:
Assay in all cases: log2 fold change, soluble protein after heating vs DMSO (PISA); higher = thermal stabilisation; K562 cells, 10 uM, 30 min; active = over 0.2 and 3.5 SD of the protein, either way, in both replicates (recomputed)
[1] = compound: COC1=CC=C(C=C1)CN2C=CC3=C2C=C(C=C3)C(=O)NO
How it was run: (§1)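 Soluble protein was quantified by TMTpro 16plex LC-MS/MS after channel sums were equalised. It was obtained as the supernatant after 21,000xg for 90 min from pooled aliquots of K562 cells (2×10^6 cells/mL, 10 μM compound, 30 min) heated for 3 min across 48°C-58°C and extracted in PBS with 0.5% NP-40 at 4°C. Thermal stability values are relative to control samples and come from duplicates. They are given as log2 fold changes.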

filanesib = compound: CON(C)C(=O)N1N=C(c2cc(F)ccc2F)S[C@@]1(CCCN)c1ccccc1 [filanesib]
How it was run: as §1

zotarolimus = compound: CO[C@H]1C[C@@H]2CC[C@@H](C)[C@@](O)(O2)C(=O)C(=O)N2CCCC[C@H]2C(=O)O[C@H]([C@H](C)C[C@@H]2CC[C@H](n3cnnn3)[C@H](OC)C2)CC(=O)[C@H](C)/C=C(\C)[C@@H](O)[C@@H](OC)C(=O)[C@H](C)C[C@H](C)/C=C/C=C/C=C/1C [zotarolimus]
How it was run: as §1

idasanutlin = compound: COc1cc(C(=O)O)ccc1NC(=O)[C@@H]1N[C@@H](CC(C)(C)C)[C@](C#N)(c2ccc(Cl)cc2F)[C@H]1c1cccc(Cl)c1F [idasanutlin]
How it was run: as §1

alisertib = compound: COc1cc(Nc2ncc3c(n2)-c2ccc(Cl)cc2C(c2c(F)cccc2OC)=NC3)ccc1C(=O)O [alisertib]
How it was run: as §1

[2] = compound: COc1cc2nc(-c3cc(F)ccc3O)nc(N[C@@H]3CNC[C@H]3C(C)(C)O)c2cc1OC
How it was run: as §1

gefitinib = compound: COc1cc2ncnc(Nc3ccc(F)c(Cl)c3)c2cc1OCCCN1CCOCC1 [gefitinib]
How it was run: as §1

[3] = compound: COc1cccc2cc(-c3nc([C@H]4CC[C@H](C(=O)O)CC4)n4ncnc(N)c34)[nH]c12
How it was run: as §1

lapatinib = compound: CS(=O)(=O)CCNCc1ccc(-c2ccc3ncnc(Nc4ccc(OCc5cccc(F)c5)c(Cl)c4)c3c2)o1 [lapatinib]
How it was run: as §1

pictilisib = compound: CS(=O)(=O)N1CCN(Cc2cc3nc(-c4cccc5[nH]ncc45)nc(N4CCOCC4)c3s2)CC1 [pictilisib]
How it was run: as §1

Measured: log2 fold change

ACAA2 (UniProt P42765)
inactive: [1] 0.024 | filanesib -0.01 | zotarolimus -0.03 | idasanutlin -0.004 | alisertib -0.008 | [2] 0.009 | gefitinib -0.002 | [3] 0.081 | lapatinib -0.044 | pictilisib 0.036

ADAR isoform 4 (UniProt P55265)
inactive: [1] -0.096 | filanesib 0.272 | zotarolimus -0.018 | idasanutlin -0.279 | alisertib 0.195 | [2] -0.181 | gefitinib -0.152 | [3] 0.186 | lapatinib -0.177 | pictilisib 0.01

ABCB10 (UniProt Q9NRK6)
inactive: [1] -0.043 | filanesib -0.038 | zotarolimus 0.006 | idasanutlin -0.028 | alisertib -0.092 | [2] 0.029 | gefitinib 0.011 | [3] 0.052 | lapatinib -0.005 | pictilisib 0.016

ACSL5 isoform 3 (UniProt Q9ULC5)
inactive: [1] -0.023 | filanesib -0.118 | zotarolimus 0.073 | idasanutlin -0.148 | alisertib -0.009 | [2] -0.259 | gefitinib 0.068 | [3] 0.074 | lapatinib 0.074 | pictilisib 0.065

ACTR6 (UniProt Q9GZN1)
inactive: [1] -0.014 | filanesib 0.058 | zotarolimus 0.03 | idasanutlin 0.008 | alisertib 0.056 | [2] 0.054 | gefitinib 0.028 | [3] -0.008 | lapatinib 0.024 | pictilisib 0.067

ADAM17 (UniProt P78536)
inactive: [1] -0.152 | filanesib 0.014 | zotarolimus 0.039 | idasanutlin -0.027 | alisertib -0.003 | [2] -0.014 | gefitinib 0.027 | [3] -0.028 | lapatinib -0.009 | pictilisib 0.018

ACADSB (UniProt P45954)
inactive: [1] 0.086 | filanesib -0.024 | zotarolimus 0.012 | idasanutlin -0.101 | alisertib 0.048 | [2] 0.005 | gefitinib -0.003 | [3] 0.03 | lapatinib 0.044 | pictilisib 0.085

AAK1 (UniProt Q2M2I8)
inactive: [1] 0.048 | filanesib -0.108 | zotarolimus -0.004 | idasanutlin -0.129 | alisertib 0.576 | [2] 0.024 | gefitinib -0.097 | [3] 0.022 | lapatinib 0.038 | pictilisib 0.087

ACAT1, A0A5F9ZHJ0
inactive: [1] -0.205 | filanesib 0.086 | zotarolimus -0.144 | idasanutlin -0.014 | alisertib -0.133 | [2] 0.103 | gefitinib 0.1 | [3] 0.059 | lapatinib 0.037 | pictilisib 0.003

ACTR1A (UniProt P61163)
inactive: [1] 0.028 | filanesib 0.009 | zotarolimus 0.005 | idasanutlin 0.004 | alisertib -0.032 | [2] 0.122 | gefitinib 0.045 | [3] -0.006 | lapatinib -0.029 | pictilisib 0.032

ACTR2 (UniProt P61160)
inactive: [1] -0.033 | filanesib 0.012 | zotarolimus 0.019 | idasanutlin -0.027 | alisertib -0.002 | [2] 0.032 | gefitinib -0.007 | [3] 0.068 | lapatinib -0.033 | pictilisib 0.047

AARS (UniProt P49588)
inactive: [1] 0.047 | filanesib -0.11 | zotarolimus 0.024 | idasanutlin -0.055 | alisertib -0.038 | [2] -0.019 | gefitinib -0.031 | [3] 0.019 | lapatinib -0.012 | pictilisib 0

ADA (UniProt P00813)
inactive: [1] -0.014 | filanesib 0.027 | zotarolimus -0.082 | idasanutlin 0.08 | alisertib -0.006 | [2] 0.056 | gefitinib -0.056 | [3] 0.008 | lapatinib -0.002 | pictilisib 0.011

ACP1 isoform 2 (UniProt P24666)
inactive: [1] 0.029 | filanesib 0.095 | zotarolimus 0.009 | idasanutlin 0.028 | alisertib 0.094 | [2] 0.036 | gefitinib 0.045 | [3] -0.077 | lapatinib 0.014 | pictilisib 0.055

ABCB8 (UniProt Q9NUT2)
inactive: [1] -0.095 | filanesib -0.081 | zotarolimus 0.001 | idasanutlin -0.032 | alisertib 0.143 | [2] 0.117 | gefitinib 0.061 | [3] 0.041 | lapatinib 0.043 | pictilisib 0.002

ABI2 (UniProt Q9NYB9)
inactive: [1] -0.079 | filanesib -0.042 | zotarolimus 0.026 | idasanutlin -0.059 | alisertib -0.077 | [2] -0.045 | gefitinib 0.03 | [3] -0.002 | lapatinib 0.004 | pictilisib 0.079

ABCA4 (UniProt P78363)
inactive: [1] 0.394 | filanesib 0.076 | zotarolimus 0.031 | idasanutlin -0.02 | alisertib -0.071 | gefitinib 0.014 | [3] -0.007 | pictilisib 0.135

ACYP2 (UniProt P14621)
inactive: [1] -0.056 | filanesib -0.076 | zotarolimus -0.123 | alisertib 0.034 | [2] -0.15 | gefitinib 0.087 | [3] 0.189 | lapatinib 0.027

ABCF2 isoform 2 (UniProt Q9UG63)
inactive: [1] -0.034 | filanesib -0.054 | zotarolimus -0.027 | idasanutlin -0.056 | alisertib -0.042 | [2] 0.006 | gefitinib -0.037 | [3] 0.058 | lapatinib -0.007 | pictilisib 0.059

ACLY (UniProt P53396)
inactive: [1] -0.026 | filanesib -0.043 | zotarolimus 0.028 | idasanutlin -0.009 | alisertib -0.049 | [2] 0.02 | gefitinib -0.003 | [3] 0.009 | lapatinib -0.02 | pictilisib 0.032

ACTR1B (UniProt P42025)
inactive: [1] 0.084 | filanesib 0.044 | zotarolimus -0.026 | idasanutlin -0.136 | alisertib -0.163 | [2] 0.008 | gefitinib 0.04 | [3] 0.073 | lapatinib -0.104 | pictilisib 0.127

AARS2 (UniProt Q5JTZ9)
inactive: [1] -0.053 | filanesib -0.159 | zotarolimus 0.029 | idasanutlin -0.107 | alisertib 0.016 | [2] -0.012 | gefitinib -0.002 | [3] 0.047 | lapatinib -0.005 | pictilisib 0.06

AAAS (UniProt Q9NRG9)
inactive: [1] 0.012 | filanesib 0.004 | zotarolimus 0.022 | idasanutlin 0.001 | alisertib -0.073 | [2] -0.003 | gefitinib 0.018 | [3] 0.002 | lapatinib 0.018 | pictilisib -0.012

ABRAXAS1 (UniProt Q6UWZ7)
inactive: [1] -0.043 | filanesib 0.31 | zotarolimus 0.073 | idasanutlin 0.263 | alisertib -0.251 | [2] 0.057 | [3] 0.042 | lapatinib 0.017 | pictilisib 0.02

ACTB, A0A2R8Y793
inactive: [1] 0.075 | filanesib 0.004 | zotarolimus 0.037 | idasanutlin -0.036 | alisertib -0.039 | [2] 0.015 | gefitinib -0.013 | [3] 0.035 | lapatinib -0.028 | pictilisib -0.063

ADAL (UniProt Q6DHV7)
inactive: [1] 0.06 | filanesib -0.049 | zotarolimus -0.031 | idasanutlin -0.038 | alisertib -0.127 | [2] 0.019 | gefitinib -0.024 | [3] 0.014 | lapatinib 0.025 | pictilisib -0.014

Two consecutive entries from above, for reference:
ACSL5 isoform 3 (UniProt Q9ULC5)
inactive: [1] -0.023 | filanesib -0.118 | zotarolimus 0.073 | idasanutlin -0.148 | alisertib -0.009 | [2] -0.259 | gefitinib 0.068 | [3] 0.074 | lapatinib 0.074 | pictilisib 0.065

ACTR6 (UniProt Q9GZN1)
inactive: [1] -0.014 | filanesib 0.058 | zotarolimus 0.03 | idasanutlin 0.008 | alisertib 0.056 | [2] 0.054 | gefitinib 0.028 | [3] -0.008 | lapatinib 0.024 | pictilisib 0.067

Following part

ABI1 (UniProt Q8IZP0)
inactive: [1] 0.02 | filanesib 0.027 | zotarolimus 0.091 | idasanutlin -0.034 | alisertib -0.042 | [2] 0.034 | gefitinib 0.025 | [3] 0.012 | lapatinib -0.002 | pictilisib -0.078

ACBD5 (UniProt Q5T8D3)
inactive: [1] 0.062 | filanesib -0.008 | zotarolimus 0.176 | idasanutlin 0.175 | alisertib -0.081 | [2] -0.171 | [3] -0.079 | lapatinib -0.029 | pictilisib -0.002

AAGAB (UniProt Q6PD74)
inactive: [1] -0.017 | filanesib 0.041 | zotarolimus -0.093 | idasanutlin -0.053 | alisertib 0.062 | [2] -0.064 | gefitinib -0.027 | [3] -0.045 | lapatinib -0.038 | pictilisib 0.039

ACTA1 (UniProt P68133)
inactive: [1] -0.031 | filanesib 0.011 | zotarolimus 0.007 | idasanutlin -0.018 | alisertib -0.023 | [2] 0.04 | gefitinib 0.003 | [3] 0.059 | lapatinib -0.064 | pictilisib -0.019
